# Earlier results as cited in US20170298055A1, “sGC STIMULATORS” (IRONWOOD PHARMACEUTICALS, INC., priority 2014, published 2017).
# At least one compound was matched to its structure with a doubt left.
# Test system: patients with BMD
# Settings: single oral dose of 20 mg, double-blind placebo-controlled crossover trial; cited from earlier work
smiles,measurement,value
CN1CC(=O)N2[C@H](c3ccc4c(c3)OCO4)c3[nH]c4ccccc4c3C[C@@H]2C1=O [tadalafil],normal blood flow regulation (functional sympatholysis),restored in eight of nine patients
